Test results as given in paper PMC3237552.
These are yes or no findings as the source states them, for the method shown. Binding seen in cells or lysates may run through a third protein. Some entries that bind do so weakly or less than the wild type.

The chains behind the UniProt entries cited, without tags or fusion partners. Residues count along the entry.
UniProt P03950, residues 25-147: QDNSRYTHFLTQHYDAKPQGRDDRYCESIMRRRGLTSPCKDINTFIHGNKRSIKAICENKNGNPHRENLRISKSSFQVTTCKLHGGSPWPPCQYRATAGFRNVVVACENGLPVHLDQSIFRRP
UniProt O43707: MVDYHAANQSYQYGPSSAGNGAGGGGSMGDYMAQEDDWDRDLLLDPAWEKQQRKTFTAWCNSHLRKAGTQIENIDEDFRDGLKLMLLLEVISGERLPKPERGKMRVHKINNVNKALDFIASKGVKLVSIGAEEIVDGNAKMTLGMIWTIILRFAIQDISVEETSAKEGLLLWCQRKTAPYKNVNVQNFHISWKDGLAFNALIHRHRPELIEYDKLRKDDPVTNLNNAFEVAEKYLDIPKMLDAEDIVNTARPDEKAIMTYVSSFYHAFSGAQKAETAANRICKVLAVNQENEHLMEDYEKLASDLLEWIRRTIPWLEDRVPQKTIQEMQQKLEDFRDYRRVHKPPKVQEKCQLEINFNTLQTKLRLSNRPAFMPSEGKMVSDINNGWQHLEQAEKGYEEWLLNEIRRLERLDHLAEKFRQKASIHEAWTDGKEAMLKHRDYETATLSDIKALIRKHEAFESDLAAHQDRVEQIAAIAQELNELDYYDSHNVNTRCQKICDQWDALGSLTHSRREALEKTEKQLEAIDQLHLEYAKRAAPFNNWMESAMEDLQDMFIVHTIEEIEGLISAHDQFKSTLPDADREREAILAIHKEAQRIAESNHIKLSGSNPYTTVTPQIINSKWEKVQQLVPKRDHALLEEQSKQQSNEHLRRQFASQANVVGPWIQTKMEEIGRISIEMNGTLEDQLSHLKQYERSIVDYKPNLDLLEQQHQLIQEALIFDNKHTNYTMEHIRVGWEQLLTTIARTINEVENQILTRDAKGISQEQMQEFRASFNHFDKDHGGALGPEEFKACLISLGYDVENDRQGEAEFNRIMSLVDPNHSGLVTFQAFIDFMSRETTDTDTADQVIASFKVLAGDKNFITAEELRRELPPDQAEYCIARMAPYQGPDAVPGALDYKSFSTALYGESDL
UniProt P35579: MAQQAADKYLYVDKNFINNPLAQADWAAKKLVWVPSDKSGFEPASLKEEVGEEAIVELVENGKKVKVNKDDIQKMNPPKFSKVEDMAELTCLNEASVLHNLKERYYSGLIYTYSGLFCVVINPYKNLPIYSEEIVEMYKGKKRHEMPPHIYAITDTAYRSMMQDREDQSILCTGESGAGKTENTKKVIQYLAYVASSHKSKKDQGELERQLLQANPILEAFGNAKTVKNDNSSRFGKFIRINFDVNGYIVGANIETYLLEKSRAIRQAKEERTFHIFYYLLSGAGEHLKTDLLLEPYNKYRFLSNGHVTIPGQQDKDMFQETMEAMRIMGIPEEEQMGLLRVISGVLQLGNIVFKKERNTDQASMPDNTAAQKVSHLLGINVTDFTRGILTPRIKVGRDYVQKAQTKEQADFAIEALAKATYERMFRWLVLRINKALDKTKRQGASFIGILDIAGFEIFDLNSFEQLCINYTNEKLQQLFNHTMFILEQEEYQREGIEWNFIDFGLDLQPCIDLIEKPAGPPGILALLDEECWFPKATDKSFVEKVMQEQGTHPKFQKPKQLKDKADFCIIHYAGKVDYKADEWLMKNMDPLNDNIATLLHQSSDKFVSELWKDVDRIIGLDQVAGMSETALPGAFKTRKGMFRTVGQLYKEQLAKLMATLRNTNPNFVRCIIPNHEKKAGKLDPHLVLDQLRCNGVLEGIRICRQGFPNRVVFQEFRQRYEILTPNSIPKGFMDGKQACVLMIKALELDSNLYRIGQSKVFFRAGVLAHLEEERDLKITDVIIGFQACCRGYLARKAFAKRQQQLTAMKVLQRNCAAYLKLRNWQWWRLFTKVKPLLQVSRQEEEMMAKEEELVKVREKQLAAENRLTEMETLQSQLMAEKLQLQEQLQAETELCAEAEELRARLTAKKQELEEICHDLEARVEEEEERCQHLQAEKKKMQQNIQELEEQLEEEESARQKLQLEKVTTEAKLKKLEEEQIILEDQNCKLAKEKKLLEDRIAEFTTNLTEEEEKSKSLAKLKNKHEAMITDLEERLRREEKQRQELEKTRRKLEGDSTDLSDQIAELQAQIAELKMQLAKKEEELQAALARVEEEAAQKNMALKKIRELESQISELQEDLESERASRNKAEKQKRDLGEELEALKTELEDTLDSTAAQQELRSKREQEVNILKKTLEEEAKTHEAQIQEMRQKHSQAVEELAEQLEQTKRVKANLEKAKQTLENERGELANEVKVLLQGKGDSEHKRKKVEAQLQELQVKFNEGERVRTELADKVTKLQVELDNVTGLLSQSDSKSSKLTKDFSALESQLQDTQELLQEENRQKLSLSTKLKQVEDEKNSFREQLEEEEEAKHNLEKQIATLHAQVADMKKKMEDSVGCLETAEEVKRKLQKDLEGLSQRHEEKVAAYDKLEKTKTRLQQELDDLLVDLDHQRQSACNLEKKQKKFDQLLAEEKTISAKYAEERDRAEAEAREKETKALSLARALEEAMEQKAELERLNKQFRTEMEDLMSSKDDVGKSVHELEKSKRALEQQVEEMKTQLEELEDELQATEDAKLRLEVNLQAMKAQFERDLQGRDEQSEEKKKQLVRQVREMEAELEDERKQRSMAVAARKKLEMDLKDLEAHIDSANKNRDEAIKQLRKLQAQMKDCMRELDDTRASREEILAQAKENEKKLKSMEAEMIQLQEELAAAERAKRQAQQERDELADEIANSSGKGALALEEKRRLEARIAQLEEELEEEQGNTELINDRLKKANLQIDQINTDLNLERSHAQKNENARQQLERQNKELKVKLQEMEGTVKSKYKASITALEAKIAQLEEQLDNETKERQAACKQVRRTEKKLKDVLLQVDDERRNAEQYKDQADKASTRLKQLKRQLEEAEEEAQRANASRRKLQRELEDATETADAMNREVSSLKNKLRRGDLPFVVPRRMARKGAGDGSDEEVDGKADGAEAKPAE

Target: Angiogenin (human (endogenous in HeLa)) (UniProt P03950)
Assay: co-IP; HeLa cells with or without exogenous ANG, RIPA lysates; immunoprecipitation with goat anti-ANG antibody or goat IgG; blots with anti-MYH9, anti-ACTN4, anti-ACTB and anti-ANG

| Substance | binding |
| --- | --- |
| Alpha-actinin-4 (from UniProt O43707 1-911) | binds |
| Myosin-9 (from UniProt P35579 1-1960) | binds |
